Values of other authors in US7351736B2, “Therapeutic compositions (II)” (priority 1998, dated 2008).
Some of these results come from one statement about several compounds together. At least one compound was matched to its structure with a doubt left.

Conditions: oral administration of 4 mM solutions; cited from earlier work

For `CC(=O)CC(=O)O[C@H](C)CC(=O)O[C@H](C)CC(=O)O[C@H](C)CC(=O)O[C@H](C)CC(=O)O` [its acetoacetyl ester], which “period of increased (R)-3-hydroxybutyrate level” value is on record?
The value was greater than 2 h.
